Assay results as given in the M2OR odorant receptor database.
Residue numbers refer to the chain shown, from its start. The entries are a selection whose mix differs from that of the whole data set. Calls are pooled over several reports, among them a noisy single-well screen. The list shows a part of the results.

Chains of the proteins cited; added tags and fusions are not shown. Lines headed by an entry give the natural chain unless they say otherwise; changes in a name come on top. Chains listed by the source or under a name are the forms on record and can include a tag or linker.
UniProt Q96R45: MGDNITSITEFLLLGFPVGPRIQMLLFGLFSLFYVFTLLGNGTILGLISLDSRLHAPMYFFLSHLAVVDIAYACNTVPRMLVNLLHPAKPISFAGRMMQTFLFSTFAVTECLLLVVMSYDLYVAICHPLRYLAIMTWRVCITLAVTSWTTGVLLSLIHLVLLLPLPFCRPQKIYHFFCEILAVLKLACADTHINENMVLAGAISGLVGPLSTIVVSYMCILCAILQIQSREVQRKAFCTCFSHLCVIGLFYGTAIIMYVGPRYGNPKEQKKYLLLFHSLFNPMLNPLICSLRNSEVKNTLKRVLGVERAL
OR2A7, as listed by the source: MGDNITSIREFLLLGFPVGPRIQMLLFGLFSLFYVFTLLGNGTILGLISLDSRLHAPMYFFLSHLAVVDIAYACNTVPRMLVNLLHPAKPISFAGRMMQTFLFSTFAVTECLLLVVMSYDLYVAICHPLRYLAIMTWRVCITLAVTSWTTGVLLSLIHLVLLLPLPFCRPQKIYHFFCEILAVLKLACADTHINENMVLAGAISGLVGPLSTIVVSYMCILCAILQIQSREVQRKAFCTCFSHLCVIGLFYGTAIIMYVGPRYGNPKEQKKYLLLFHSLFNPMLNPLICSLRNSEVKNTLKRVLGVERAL
OR2A2, as listed by the source: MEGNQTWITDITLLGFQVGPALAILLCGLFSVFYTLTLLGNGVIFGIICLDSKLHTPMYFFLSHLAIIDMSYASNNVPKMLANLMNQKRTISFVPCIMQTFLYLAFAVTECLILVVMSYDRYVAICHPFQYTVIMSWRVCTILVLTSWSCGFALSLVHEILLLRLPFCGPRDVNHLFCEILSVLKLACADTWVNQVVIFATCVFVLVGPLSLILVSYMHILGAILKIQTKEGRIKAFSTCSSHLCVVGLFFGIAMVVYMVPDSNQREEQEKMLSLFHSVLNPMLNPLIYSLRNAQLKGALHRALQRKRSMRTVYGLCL

Experiments:
Conditions in all cases: stereoisomer not certain
OR2A14 (Homo sapiens) = target: T1, OR2A14 (Homo sapiens) (UniProt Q96R47)
T1 sequence (whole entry): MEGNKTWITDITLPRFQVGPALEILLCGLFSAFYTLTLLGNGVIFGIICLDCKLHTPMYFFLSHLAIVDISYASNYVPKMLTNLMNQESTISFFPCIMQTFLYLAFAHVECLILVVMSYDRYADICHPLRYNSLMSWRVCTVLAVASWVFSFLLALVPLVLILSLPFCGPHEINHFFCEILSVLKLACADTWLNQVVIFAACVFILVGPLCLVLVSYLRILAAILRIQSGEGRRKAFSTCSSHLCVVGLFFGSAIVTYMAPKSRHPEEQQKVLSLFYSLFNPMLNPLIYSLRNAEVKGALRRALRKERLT
Procedure, shortened: (§1)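 Transient luciferase assays in mammalian cell lines were common, though methods varied by source. The values come from published papers and their supplementary material, with extra details from the original authors when needed. Responsive refers to a measured signal the original authors judged statistically different from baseline, and non-responsive (inactive) to the remainder.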

OR2A1 [1] = tested on: T2, OR2A1
T2 sequence (whole entry): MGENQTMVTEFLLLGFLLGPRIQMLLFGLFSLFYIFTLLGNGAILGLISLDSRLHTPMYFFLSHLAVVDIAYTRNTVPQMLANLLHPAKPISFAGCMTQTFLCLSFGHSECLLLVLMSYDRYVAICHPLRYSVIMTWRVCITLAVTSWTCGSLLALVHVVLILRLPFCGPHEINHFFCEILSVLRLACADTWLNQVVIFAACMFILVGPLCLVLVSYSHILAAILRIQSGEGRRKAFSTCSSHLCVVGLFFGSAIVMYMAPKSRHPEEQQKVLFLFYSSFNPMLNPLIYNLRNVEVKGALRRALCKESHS
Procedure, shortened: as §1

OR2A1 [2] = tested on: T3, OR2A1; remark: listed apart in the source
T3 sequence (whole entry): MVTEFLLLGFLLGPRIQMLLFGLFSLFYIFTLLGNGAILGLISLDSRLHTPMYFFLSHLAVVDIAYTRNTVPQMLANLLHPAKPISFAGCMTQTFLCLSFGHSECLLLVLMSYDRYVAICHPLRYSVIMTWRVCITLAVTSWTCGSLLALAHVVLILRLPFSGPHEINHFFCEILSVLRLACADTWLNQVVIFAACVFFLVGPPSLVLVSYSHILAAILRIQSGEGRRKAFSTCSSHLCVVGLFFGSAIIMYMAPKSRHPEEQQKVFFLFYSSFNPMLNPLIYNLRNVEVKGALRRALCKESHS
Procedure, shortened: as §1

OR2A2 (Homo sapiens) = target: T4, OR2A2 (Homo sapiens) (UniProt Q6IF42)
T4 sequence (whole entry): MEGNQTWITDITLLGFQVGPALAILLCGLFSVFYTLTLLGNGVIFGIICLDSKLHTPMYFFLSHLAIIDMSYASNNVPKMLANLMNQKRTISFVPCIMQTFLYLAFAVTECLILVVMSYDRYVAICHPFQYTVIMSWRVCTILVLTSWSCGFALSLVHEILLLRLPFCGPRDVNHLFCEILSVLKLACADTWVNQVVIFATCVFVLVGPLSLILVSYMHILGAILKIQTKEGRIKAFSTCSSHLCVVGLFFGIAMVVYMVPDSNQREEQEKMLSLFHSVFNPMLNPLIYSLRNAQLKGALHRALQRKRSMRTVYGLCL
Procedure, shortened: as §1

OR2A25 (Homo sapiens) = target: T5, OR2A25 (Homo sapiens) (UniProt A4D2G3)
T5 sequence (whole entry): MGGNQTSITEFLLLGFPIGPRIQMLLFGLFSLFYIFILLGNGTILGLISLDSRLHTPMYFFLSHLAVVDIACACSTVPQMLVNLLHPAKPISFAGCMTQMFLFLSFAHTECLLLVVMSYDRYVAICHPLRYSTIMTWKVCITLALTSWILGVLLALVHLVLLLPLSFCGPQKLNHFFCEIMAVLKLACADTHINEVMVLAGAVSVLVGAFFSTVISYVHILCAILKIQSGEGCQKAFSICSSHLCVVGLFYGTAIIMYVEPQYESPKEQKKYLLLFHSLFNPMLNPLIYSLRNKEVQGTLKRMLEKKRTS
Procedure, shortened: as §1

OR2A2 = tested on: T6, OR2A2
T6 sequence (whole entry): T4 sequence (whole entry) with F280L
Procedure, shortened: as §1

OR2A4 (Homo sapiens) = target: T7, OR2A4 (Homo sapiens) (UniProt O95047)
T7 sequence (whole entry): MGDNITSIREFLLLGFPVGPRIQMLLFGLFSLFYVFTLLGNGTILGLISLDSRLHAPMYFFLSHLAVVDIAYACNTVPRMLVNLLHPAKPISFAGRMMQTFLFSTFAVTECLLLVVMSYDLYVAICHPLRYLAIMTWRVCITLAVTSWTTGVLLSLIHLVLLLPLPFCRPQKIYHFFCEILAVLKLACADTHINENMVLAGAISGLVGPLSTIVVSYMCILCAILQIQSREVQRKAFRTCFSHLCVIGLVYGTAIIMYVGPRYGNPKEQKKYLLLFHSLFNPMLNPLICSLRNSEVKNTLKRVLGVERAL
Procedure, shortened: as §1

OR2A5 (Homo sapiens) = target: T8, OR2A5 (Homo sapiens) (UniProt Q96R48)
T8 sequence (whole entry): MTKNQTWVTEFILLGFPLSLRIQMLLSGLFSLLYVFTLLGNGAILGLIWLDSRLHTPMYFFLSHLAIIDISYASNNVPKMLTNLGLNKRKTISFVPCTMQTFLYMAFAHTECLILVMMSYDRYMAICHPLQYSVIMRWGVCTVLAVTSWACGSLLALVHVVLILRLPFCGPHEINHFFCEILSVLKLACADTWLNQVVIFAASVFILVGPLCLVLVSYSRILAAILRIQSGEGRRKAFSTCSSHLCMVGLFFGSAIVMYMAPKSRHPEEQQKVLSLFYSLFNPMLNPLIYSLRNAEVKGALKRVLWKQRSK
Procedure, shortened: as §1

OR2A7 (Homo sapiens) = target: T9, OR2A7 (Homo sapiens) (UniProt Q96R45)
T9 sequence (whole entry): T7 sequence (whole entry) with R9T, R238C, V250F
Procedure, shortened: as §1

OR2A7 = tested on: T10, OR2A7
T10 sequence (whole entry): T7 sequence (whole entry) with R238C, V250F
Procedure, shortened: as §1

Measured: odorant receptor agonist call

CCCCCCOC(=O)CCC
inactive: all assays above

CCCCCCCC=CC=O
active: OR2A2 (Homo sapiens) | OR2A4 (Homo sapiens)
inactive: all other assays above

CC=Cc1ccc(O)c(OC)c1
active: OR2A1 [2] | OR2A5 (Homo sapiens)
inactive: all other assays above

C=CCc1ccc(OC(C)=O)c(OC)c1
active: OR2A1 [2]
inactive: all other assays above

CC1=CCC(C(C)(C)O)CC1 (centres undefined)
inactive: all assays above

CCCCO
inactive: all assays above

COC(=O)c1ccccc1O
inactive: all assays above

CC(C)=CCCC(C)=CC=O
inactive: all assays above

COc1ccccc1O
inactive: all assays above

CC12C=CCC1C1CCC3CC(=O)CCC3(C)C1CC2 (centres undefined)
inactive: all assays above

O=CCc1ccccc1
active: OR2A1 [2]
inactive: all other assays above

CC(C)C(=O)O
inactive: all assays above

CC(C)CCC(=O)O
inactive: all assays above

CC(=O)OCC=C(C)CCC=C(C)C
active: OR2A14 (Homo sapiens) | OR2A1 [2] | OR2A25 (Homo sapiens)
inactive: all other assays above

C=CCSCC=C
inactive: all assays above

CC12CCC(CC1)C(C)(C)O2
inactive: all assays above

CCC1(O)C2(C)CCC(C2)C1(C)C (centres undefined)
inactive: all assays above

CC12CCC(C1)C(C)(C)C2=O (centres undefined)
inactive: all assays above

CCCCCCCC=O
inactive: all assays above

COc1cc(C=O)ccc1O
inactive: all assays above

CC(C)(C)c1ccc(CCC=O)cc1
inactive: all assays above

CCCC(=O)O
inactive: all assays above

c1ccc(Oc2ccccc2)cc1
inactive: all assays above

CC(C)C=O
active: OR2A14 (Homo sapiens)
inactive: all other assays above

CCCCCCCCCC=O
inactive: all assays above

COc1cc(C)ccc1O
inactive: all assays above

c1cnccn1
inactive: all assays above

CCCCCCCOC(C)=O
inactive: all assays above

O=C1CCCCCCCCCCCCCCO1
inactive: all assays above

CCC=CCCO
inactive: all assays above

CC(C)(O)CCCC1=CCC(C=O)CC1 (centres undefined)
inactive: OR2A1 [2] | OR2A7 (Homo sapiens)

CCCCCCCCC=O
inactive: OR2A7 (Homo sapiens)

CCCCCC(=O)O
inactive: all assays above

CCCCCCCCOC(C)=O
inactive: all assays above

CCCCCC(C)=O
not listed: OR2A1 [2] | OR2A2 | OR2A7 (Homo sapiens)
inactive: all other assays above

CC(C)CC(=O)O
inactive: all assays above

CC1CCC(C(C)C)C(O)C1 (centres undefined)
active: OR2A2 (Homo sapiens) | OR2A2 | OR2A7 (Homo sapiens)
inactive: all other assays above

CC(=O)c1ccccc1
active: OR2A1 [1]
not listed: OR2A1 [2] | OR2A2 | OR2A7 (Homo sapiens)
inactive: all other assays above

O=C1CCCCCCCCCCCC(=O)OCCO1
active: OR2A1 [2] | OR2A4 (Homo sapiens)
inactive: all other assays above

C=C(C)C1CCC2=CC(=O)CC(C)C2(C)C1 (centres undefined)
inactive: OR2A1 [2]

CCCCCCCCCCC=O
inactive: all assays above

CCCCCOC(C)=O
active: OR2A14 (Homo sapiens) | OR2A1 [1]
not listed: OR2A2 | OR2A7 (Homo sapiens)
inactive: all other assays above

CC(=O)OC(C)(C)C1CC=C(C)CC1 (centres undefined)
inactive: all assays above

CC12C=CCC1C1CCC3=CC(=O)CCC3(C)C1CC2 (centres undefined)
active: OR2A14 (Homo sapiens)
inactive: all other assays above

C=C(C)C1CC=C(C)C(=O)C1 (centres undefined)
inactive: OR2A7 (Homo sapiens)

C=CCc1ccc(OC)c(OC)c1
inactive: all assays above

CC(=O)OC1CC2CCC1(C)C2(C)C (centres undefined)
active: OR2A14 (Homo sapiens)
inactive: all other assays above

O=C1CCCCC1
not listed: OR2A1 [2] | OR2A2 | OR2A7 (Homo sapiens)
inactive: all other assays above

CC1=NC(C)SC1C (centres undefined)
not listed: OR2A1 [2] | OR2A2 | OR2A7 (Homo sapiens)
inactive: all other assays above

CC1COCc2cc3c(cc21)C(C)(C)C(C)C3(C)C (centres undefined)
inactive: OR2A14 (Homo sapiens) | OR2A1 [1]
active: all other assays above

CC(=O)C(C)=O
inactive: all assays above

COC(=O)c1ccccc1
active: OR2A1 [1]
not listed: OR2A1 [2] | OR2A2 | OR2A7 (Homo sapiens)
inactive: all other assays above

C=CC(C)(O)CCC=C(C)C (centres undefined)
inactive: all assays above

C=CCc1ccc(O)c(OC)c1
inactive: OR2A7 (Homo sapiens)
